Experimental data taken from US12503485B2, “Human aminosterol ENT-03 compounds, related compositions comprising the same, and methods of using the same” (Enterin, Inc., priority 2019, dated 2025).
At least one compound was matched to its structure with a doubt left.

Experiments:
[1] = target: T1, PTPN11/SHP2-FL (E76K) (Homo sapiens, UniProt Q06124, E76K); experiment: Phosphatase assay PTPN11/SHP2-FL (E76K)
T1 sequence (Q06124 2-597 isoform Q06124-1 E76K): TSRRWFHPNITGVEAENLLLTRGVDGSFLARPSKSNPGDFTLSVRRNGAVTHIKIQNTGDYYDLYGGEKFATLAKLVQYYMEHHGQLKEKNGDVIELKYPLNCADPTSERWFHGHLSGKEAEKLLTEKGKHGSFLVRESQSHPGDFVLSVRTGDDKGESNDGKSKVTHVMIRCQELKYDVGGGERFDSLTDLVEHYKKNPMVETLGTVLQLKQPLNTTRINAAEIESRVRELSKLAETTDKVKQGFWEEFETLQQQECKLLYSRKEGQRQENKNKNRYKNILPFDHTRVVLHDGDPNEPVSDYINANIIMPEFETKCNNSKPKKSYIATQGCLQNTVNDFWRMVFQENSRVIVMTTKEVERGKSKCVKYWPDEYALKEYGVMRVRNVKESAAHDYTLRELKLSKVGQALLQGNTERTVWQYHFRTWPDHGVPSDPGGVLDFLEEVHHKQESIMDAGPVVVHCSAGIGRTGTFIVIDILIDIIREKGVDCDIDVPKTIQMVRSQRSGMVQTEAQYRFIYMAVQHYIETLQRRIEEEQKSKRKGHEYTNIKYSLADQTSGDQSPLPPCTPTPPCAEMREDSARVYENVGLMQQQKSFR

[2] = system: Xenopus leavis tadpole; experiment: In vivo activity on Xenopus tadpole in water
Method: To assess the activity of ENT-05 in vivo, the compound was added to 500 ml of distilled water to a concentration of 10 μg/ml. A Xenopus leavis tadpole, premetamorphic, was placed into the solution. […] A second animal was placed in 500 ml of water, containing 10 μg/ml ENT-05, but also 50 mM NaCl. In this case, the animal survived. The animal was then transferred to spring water without either salt or ENT-05 and remained active over the following days.

| Structure (SMILES) | inhibition of PTPN11 (E76K), in words [1] | effect on tadpole ([2]; 10 μg/ml in 500 ml water with 50 mM NaCl) | effect on tadpole ([2]; 10 μg/ml in 500 ml distilled water, about 1 hour) |
| --- | --- | --- | --- |
| CC(CCCC(C)C1CCC2C3C(O)CC4CC(NCCCNCCCCN)CCC4(C)C3CC(O)C12C)C(=O)O (single isomer, unassigned) [ENT-05] | great specificity | survived | – |
| CC(CCCC(C)C1CCC2C3C(O)CC4CC(NCCCNCCCCN)CCC4(C)C3CCC12C)C(=O)O (single isomer, unassigned) [ENT-06] | – | – | No similar effect |
